Results as given in patent US12318449B2 (Rutgers, The State University of New Jersey, priority 2012, dated 2025).

Legend:
[1] = tested on: stage III and stage IV melanoma; conditions: recent phase 0 trial; cited from earlier work
C8161-luc cells = conditions: 3 weeks of treatment

Nc1nc2ccc(OC(F)(F)F)cc2s1 [Riluzole, riluzole]
clinical and metabolic responses [1]: approximately one third of the patients exhibited remarkable clinical and metabolic responses | tumor cell growth as indicated by luminescent signal (C8161-luc cells; riluzole (10 mg/kg) plus irradiation (4 Gy)): much less tumor cell growth | luminescence (photon flux) (C8161-luc cells; riluzole alone (10 mg/kg) compared to vehicle): decreased luminescence
